The text below walks through data of patent publication US20110207675A1.

Assay [1] deals with T1, ETS domain of ERG expressed as HaloTag fusion protein (UniProt P11308).
T1 sequence (looked up): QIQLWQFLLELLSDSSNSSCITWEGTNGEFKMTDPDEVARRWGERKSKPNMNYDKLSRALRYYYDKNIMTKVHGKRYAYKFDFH
Put plainly: competition pull-down, GST-AR as competitor (FIG. 30).

Assay [2] deals with T1, ETS domain of ERG expressed as HaloTag fusion protein. Briefly: competition pull-down: Halo-ETS beads, GST-AR as competitor, various peptide concentrations, anti-GST blot.

No constants are given. Whether binding was seen depends on the method and setting. In cells and extracts the contact can be indirect. Some binding calls cover weakened binding; strength is not graded here. Tags and fused reporters may be left off the sequences shown.

On to LSFGSLP [synthetic peptide LSFGSLP], for which the binding entry in assay [1] and in assay [2] was “binds” each time.
